## Percent effect of library compounds

Amino acid sequences for entries named in this document (tags omitted). Residues count along the entry.
UniProt Q8IDJ8, 1-583: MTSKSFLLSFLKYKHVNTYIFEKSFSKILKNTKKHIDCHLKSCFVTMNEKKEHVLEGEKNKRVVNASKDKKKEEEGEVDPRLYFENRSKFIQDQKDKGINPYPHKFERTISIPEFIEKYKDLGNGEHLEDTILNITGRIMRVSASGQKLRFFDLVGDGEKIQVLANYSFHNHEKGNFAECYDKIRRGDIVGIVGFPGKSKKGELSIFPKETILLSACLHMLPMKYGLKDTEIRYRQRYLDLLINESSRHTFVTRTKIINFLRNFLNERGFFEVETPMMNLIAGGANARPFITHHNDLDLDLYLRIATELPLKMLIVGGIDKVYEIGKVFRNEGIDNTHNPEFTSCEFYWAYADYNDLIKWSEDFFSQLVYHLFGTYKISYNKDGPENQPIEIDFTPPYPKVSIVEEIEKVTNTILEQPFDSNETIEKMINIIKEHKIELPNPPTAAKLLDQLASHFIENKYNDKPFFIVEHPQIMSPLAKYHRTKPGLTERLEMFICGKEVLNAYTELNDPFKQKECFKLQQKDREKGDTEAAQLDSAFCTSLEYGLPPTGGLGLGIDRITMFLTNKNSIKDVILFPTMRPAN

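Lysine-tRNA ligase, Plasmodium falciparum 3D7 (UniProt Q8IDJ8). Enzyme assay of the cytosolic lysyl-tRNA synthetase in 384-well plates, read by luminescence. Compounds at 30 µM. Higher reads as stronger inhibition, judged from the few compounds that gave an IC50. Of about 69,000 compounds tested this way, about 49 (0.071%) reached 50% or more in at least one test.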

The filed quantity is “Percent Effect” (%).
The controls that fix the scale are not given in the record; negative values are as filed.
The compounds are a random part of those screened.

structure,Percent Effect
Cc1nc(CN2CCC(C(=O)O)(n3ccc(-c4ccco4)n3)CC2)co1,2.275%
Cc1cccc(NS(=O)(=O)c2ccc(C#N)nc2)c1C#N,-1.465%
CC(C)CS(=O)(=O)Nc1ccc2c(c1)OCC(C)(C)C(=O)N2C,3.756%
CCc1nc(C(=O)N2CCN(C)c3ccccc32)c[nH]1,5.265%
CCOCC1CN(S(=O)(=O)N(C)C)Cc2cnn(CC)c21 (stereo not drawn),2.328%
CC(C#N)CN(C)C(=O)c1cn(-c2ccc(Br)cc2)cn1 (stereo not drawn),0.4057%
Cc1ncc(CNC(CCO)C2CCCCC2)s1 (stereo not drawn),-2.139%
Cc1ccccc1NC(=O)CNC(C)COc1ccccc1 (stereo not drawn),6.357%
NCC(CO)Cc1ccc(OC(F)(F)F)cc1 (stereo not drawn),1.208%
O=C(c1ccccc1)N1C[C@@H]2CC[C@H](C1)N(C(=O)CN1CCOCC1)C2,5.337%
O=C(CN1CCCC1CC(=O)c1ccccc1)NCc1ccccn1 (stereo not drawn),-6.993%
Cc1cccc2nc(C(=O)N3CCC4(CCC(=O)N(C)C4)CC3)c(F)n12,2.878%
CC(C)Cc1noc(-c2ccc(NCc3noc(C(C)C)n3)nc2)n1,-3.856%
Fc1ccccc1CN1C[C@@H]2CN(Cc3cccnc3)CCO[C@@H]2C1,4.262%
Cn1ccnc1CN(CCO)C(=O)c1cnc2ccccc2c1,3.647%
Cc1ccccc1-c1noc(CN2CCc3cncnc3C2)n1,2.575%
COCCC(=O)N1CCC2(CN(Cc3ccc(OC)c(F)c3)C2)C1,5.362%
COc1ccc(-c2nc(CCNc3nnc(C)c(C)c3C#N)co2)cc1,-5.964%
Cn1nc(CN2CCCCC2)c2c1CN(C(=O)Nc1cccc(F)c1)C2,-1.532%
CCCS(=O)(=O)NC(=O)c1ccc(-n2nc(C)cc2C)cc1,2.773%
CCC(CC)NCC(c1ccccn1)N1CCOCC1 (stereo not drawn),-1.489%
COC(C)(C)c1noc(C2(C#N)CCCC2)n1,1.571%
CN(CCc1ccccn1)C(=O)c1cccs1,0.8764%
CN1CCCN(S(=O)(=O)c2cn(C)cn2)c2cc(F)ccc21,2.97%
CC(C)NC(=O)CN1CCN(CC2CCOc3ccccc3C2)CC1 (stereo not drawn),0.7239%
O[C@@H]1C[C@@H](c2nc(Cc3ccccc3)no2)N(CC2CC2)C1,2.018%
CN(C)CC1CN(Cc2coc(-c3ccc(Cl)cc3)n2)CCO1 (stereo not drawn),0.5045%
CN(C)[C@@H]1CCN(C(=O)c2cccn2C)[C@H]1Cc1cnn(C)c1,6.65%
COc1ccc(C(=O)Nc2c(C(=O)N(C)C)nn(C)c2C)cc1,-0.3136%
COc1ccc(-c2ccncc2)cc1CNC1CCCC1,4.509%
c1coc(-c2noc(CN3CCC(c4ccn[nH]4)CC3)n2)c1,-1.526%
Cn1cc(C(=O)N2CCOc3cc(F)ccc32)ccc1=O,4.079%
Cc1nc(C(C)N2Cc3ncccc3C2=O)cs1 (stereo not drawn),5.796%
Cc1oncc1C(=O)NCc1cc(=O)n2c(n1)CN(C(C)C)CCC2,5.569%
CCN(Cc1nc2c(cnn2C)c(=O)[nH]1)Cc1ccccc1C,3.762%
O=C(CN1CCCCC1Cn1cncn1)NC1CCN(C2CC2)CC1 (stereo not drawn),-4.602%
Cc1nc(N2CCN(S(C)(=O)=O)CC2)cc(-n2cnc(C)c2C)n1,-0.8501%
CCN(Cc1ccncc1)C1CCCN(C/C=C/c2ccc(F)cc2)C1 (stereo not drawn),1.603%
Cc1cccc(CS(=O)(=O)NCC(O)Cc2ccccc2)c1 (stereo not drawn),4.3%
O=C(CCn1c(C(F)F)cc2cccnc21)NC1CCCC1,0.2431%
CO[C@H]1C[C@@H](O)C12CCN(Cc1nc(C(F)(F)F)no1)CC2,1.956%
O=C(Cc1noc(C(=O)NCC2CC2)n1)Nc1cccc(C(F)(F)F)c1,3.042%
COCCOCCNC(=O)N1CCN(c2ccccc2C#N)CC1,4.419%
CS(=O)(=O)NCc1cncc2c1CCN(C(=O)c1cccnc1)C2,2.312%
COc1cccc(CCC2CCCN(C(=O)c3n[nH]c4c3CCC4)C2)c1 (stereo not drawn),1.92%
Cc1ccnc(C(NC(=O)c2oc(C)nc2C)C2CC2)n1 (stereo not drawn),0.4581%
Cc1nc(CN2CCCC(N(C)c3cnc4ccccc4n3)C2)no1 (stereo not drawn),0.9182%
CSc1nccc(N2CCC(NCc3nc(C)cc(C)n3)CC2)n1,5.167%
COCCCNC(=O)Cn1c(-c2cccc(Cl)c2)nc(C)cc1=O,6.304%
Cc1cc2c(o1)CC(C)(C)CC2NC(=O)CNC(=O)C1CC1 (stereo not drawn),3.459%
CCc1cc(O)n2nc(C3CCN(C(=O)c4ccccn4)CC3)cc2n1,0.7076%
O=C(NC1CCN(CC2CC2)C1)c1ccc(N2CCC(O)CC2)cc1 (stereo not drawn),2.292%
CCCn1c(C)c(CC(=O)N(C)CCOC)c2c1CC(C)(C)CC2=O,1.86%
Cc1csc2ncc(-c3ccnc(N4CCCC4)n3)c(=O)n12,2.62%
Cc1nc(CNCC2CN(C)CCO2)cs1 (stereo not drawn),3.518%
Cc1ccc(C(C(=O)N2CCN(C(=O)c3ccc[nH]3)CC2)N(C)C)cc1 (stereo not drawn),2.774%
CC(C)NC(=O)NCCn1nc(C(F)(F)F)n(C)c1=O,3.152%
O=C(c1cccc(-n2cccn2)c1)N1CCCOC(Cn2cccn2)C1 (stereo not drawn),-2.518%
Fc1ccc(CN2CCO[C@H]3[C@H](OCC4CCCC4)CC[C@@H]32)cc1,0.8963%
NC(=O)C1CCN(CCc2ccc(NC(=O)C3CC3)cc2)CC1,-0.1896%
O=C(Nc1cccnc1-n1cncn1)N(C1CCCC1)C1CC1,4.298%
O=C(c1cc(F)cc(F)c1)N1C[C@H]2CNC[C@H]2C1,1.973%
c1cc(-c2nnc(C3(c4ccc5c(c4)OCO5)CCOCC3)o2)ccn1,3.407%

For reference, 7 entries once more:

| structure | Percent Effect |
|---|---|
| `CN1CCCN(S(=O)(=O)c2cn(C)cn2)c2cc(F)ccc21` | 2.97% |
| `Cc1ccccc1NC(=O)CNC(C)COc1ccccc1` (stereo not drawn) | 6.357% |
| `CC(C)NC(=O)CN1CCN(CC2CCOc3ccccc3C2)CC1` (stereo not drawn) | 0.7239% |
| `CSc1nccc(N2CCC(NCc3nc(C)cc(C)n3)CC2)n1` | 5.167% |
| `Cc1cccc(CS(=O)(=O)NCC(O)Cc2ccccc2)c1` (stereo not drawn) | 4.3% |
| `O=C(Cc1noc(C(=O)NCC2CC2)n1)Nc1cccc(C(F)(F)F)c1` | 3.042% |
| `Cn1cc(C(=O)N2CCOc3cc(F)ccc32)ccc1=O` | 4.079% |

Measurements from “University of Dundee, Small-Polar-MMV Screening Library” (2021), ChEMBL document CHEMBL3988442.